The results in this text go back to PubChem BioAssay AID1508600 (Functional Genomics Laboratory (NCATS/FGL), 2020).

The whole screen tested about 53,000 sequences, of which about 3,700 (7%) were called active.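 Rule for the calls: active = gene knockdowns whose robust z-score for IL-1 alpha signal is at least 2 or at most -2, so actives lie on both sides; inactive = the rest.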 The list shows a part of the results.

The experiment is described as follows: Components of the Cytosolic LPS Sensing Pathway: Gene Identification via Genome-wide siRNA Screen.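 Note: robust z of the log signal after scaling to non-targeting control siRNA wells of the plate.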 The note with it: RAW264.7 macrophages, IL-1a HTRF, actives lie on both sides, screened at 100 nM (by protocol), cells primed 5 h with Pam3CSK4 first. In a few lines:
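Mouse macrophage line RAW264.7 is transfected with siRNA (100 nM final), grown 48h, primed with TLR ligand Pam3CSK4 5 h and given intracellular LipidA 24 h. IL-1a in supernatant is read by HTRF and viability by luminescence.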
For the sequence CCAUGUCAAAGAAAAACCATT against Rfx2, the z-score was inactive: -0.387. With GGUCACACCCACCAUUACGTT against Serpina11, the z-score was inactive: -0.765.

Consider GGUCAGCAUUAUCAAGCCUTT against Hsd11b2, for which the z-score is inactive: 0.159. The same measure for GGAUUCCUGGUCUUUAAGCTT against Zfp7: inactive: 0.631; for GGAGUGUAUUAAGAUUUCUTT against Guf1: inactive: 1.5. The same measure for CCAUACUACGGAUGUUUGATT against Calb2: inactive: 0.677. The result for GGAAGCAUUUGAAGUUAAATT against Prdm16 reads inactive: 0.977. Take GGUGAACUGAAAAUUCUAGTT against Usp12: the z-score was inactive: 0.639.

Consider GGCUGAAAGGGAAGACAAATT against B3galnt1, for which the z-score was inactive: 1.47. The result for CGAGAUUUAUAUGGUGUCUTT against Agbl3 reads inactive: -0.175; that for UCAACCAAACAAUCCUGAATT against Olfr417, inactive: -0.473. The same measure for GGUAAAAACUUUCCUUUAGTT against Prph2: inactive: 1.48. The same measure for GGACUCAAGUGCAAGACACTT against Strip2: inactive: 1.6. With CCUAUUGACUGUGAGCUAUTT against C8b, the z-score was inactive: 0.667. The result for GGACAGUUCAAUGAGGACATT against Arl8a reads inactive: 0.208. On to GGAGCUACCCGACAUACUGTT against Cfi, for which the z-score was inactive: -1.21.

Consider GGAGACAAUUUAAAAGCAGTT against Cmtm2b, for which the z-score was inactive: -1.16. As for GGACUUUGAGACUCAUCCGTT against Tmem229b, the z-score is inactive: -1.01. Consider GGGCUUUGGCUACAAAGGCTT against Ppif, for which the z-score is inactive: -1.4.

As for GGAACAGAUCUCUGAUAUATT against Sub1, the z-score is inactive: 0.564. The same measure for CCUCAUUCGAUACAUCUGUTT against Ints3: inactive: 0.319. Turning to GGAAGAAGCCAAAAUUGAATT against Pdgfa, the z-score is inactive: 0.237. GCUCUCCACUGACUUAGUATT against Mrgpra3: the z-score was inactive: -1.91.

Turning to GGCAUGAUGAUAUUUGAAATT against Glrp1, the z-score is inactive: -0.142.

For the sequence CCUGUACCUGACCAAACCUTT against Socs2, the z-score is inactive: -0.937. The same measure for GGUCAUGAUGAAUGAGACUTT against Cstf1: inactive: 1.68; for GAAGCCUAACCUCACCCUGTT against Ang: inactive: -0.781; for GGAAUUAAUGGCAUAGACUTT against Cert1: inactive: 0.521. The result for GGGUUUAGACGUAGAUUCUTT against Rpl17 reads inactive: -0.525; that for GCGUGUAUACCAGCCUUACTT against Egfl7, inactive: 0.0437; that for CGCCAUCAAAUAUGAAGCATT against Vps4a, inactive: -0.44. The same measure for GGUCAUCUUACAGUUUAAATT against Smap2: inactive: 0.593; for CCUUCAGUGCUGUAGUGUATT against Rasl10b: inactive: 0.37; for GGGAGAGAAAUCCCAUUCUTT against Bsnd: inactive: -0.992.

For GCCUAUUGGCCUGAUAUGUTT against Gpr141b, the z-score was inactive: 0.173.

For the sequence GGAAGAGGUUCAGAACAGATT against Spaca1, the z-score was inactive: 1.19. The same measure for GGUUCUAUUUGUGAAAAGUTT against Adam10: inactive: 0.783; for GGAUGCUGGCUGAUUUUCUTT against Olfr1019: inactive: 0.368.

In the case of “GGCAACGGAAGAAAAUUAATT against 4930429B21Rik”, the z-score was inactive: -1.26.

In the case of GGAAUUUGGUCUAUGCUUGTT against Stra6, the z-score was inactive: 0.806. Regarding “GGACGACUGGAAGUUUUCUTT against 5830411N06Rik”, the z-score is active: 3.95. For CGACAUGGAGACAAUCUAUTT against Ptges, the z-score is inactive: -0.249. As for GGUCAUCCUCAAGUCUCCUTT against Stmn3, the z-score was active: -2.28.

Regarding GGACGAUGAAGACAGCAAGTT against Scn8a, the z-score was inactive: -0.62. Consider GGUGUUGCUGUGUUUUAUATT against Olfr1259, for which the z-score was inactive: 0.964. For the sequence GGGAAAAAGAGCUUUUAGCTT against Helt, the z-score was inactive: -0.552. The same measure for GCCAGAGAUUCCUCAACGATT against Rpp21: active: -2.48; for GGGUGGUUUUAGUGUACUATT against Mrgpra7: inactive: -0.548; for GGUUCCAAGAGACUGAAAGTT against Hbq1b: inactive: -0.719. Consider GGUUUGUGUCCAGCUGCUUTT against Olfr502, for which the z-score was inactive: 1.24. On to GGAAUGUUAAUGAUGCAGATT against Nmb, for which the z-score is inactive: -0.656. The same measure for GGGAUUGUGAAUUUCAUGUTT against Gca: inactive: 1.3; for CGAUCAACAAGAAAAAGCUTT against Lcp1: inactive: 0.246. Regarding GAGGGUGACCGCUUCAGAATT against Scn4b, the z-score is inactive: 1.56. As for CUUUGCUCUACCUUUCAGCTT against Olfr657, the z-score was inactive: 1.5. The result for GGCACAUAGCCAUACCAGATT against Fbxw17 reads inactive: 0.0511.

In the case of GGAUUGGCAACCUCCAUUUTT against Kdm5a, the z-score is inactive: -0.312.

Regarding GGUAUCCAUGUCAUGCUCUTT against Cyp4a12b, the z-score is inactive: -1.95. The same measure for GGUAAUGAUACCUUGAAUGTT against H60a: active: 2.11. The same measure for GGUUCACAGAAUUUAAGUGTT against Clec4a2: inactive: 0.896. The same measure for GAUACGAGGAAAUCGUUAATT against Eef1a1: inactive: 0.419. As for GGGAUGUUUUGUUUUUAACTT against Mlc1, the z-score was inactive: 0.384. The same measure for GGACUUCAAAUGCUGUGGCTT against Tspan11: inactive: -1.1; for GGGACAGAUCUGAACCUUUTT against Hbegf: inactive: 1.54. The same measure for GGCAAACAACUGAAUAAGGTT against Pbsn: inactive: -0.611; for GGUUUGUCAACAUUGCUGATT against Kdm4a: inactive: 0.203; for GAACACCCUGCCGACCAAATT against Tmsb10: inactive: -0.242. Consider GACCACUUCCUUCUAUGCCTT against Slc35c1, for which the z-score was active: -2.07. GGACAUUGUUGUCCAAACUTT against Sptb: the z-score was active: -2.24. The result for GGUCUUAUUUUGAAGUGUUTT against Cybb reads inactive: 0.013. Regarding GGAUGUGCCCGAUAUUCCATT against Gtpbp1, the z-score was inactive: 0.853. The same measure for GCUGGAUCUUUGAAUGAGGTT against Olfr910: inactive: -1.01. On to GCUUGUUAUGUCACAUAUCTT against Pdcl3, for which the z-score is inactive: 0.208. The result for GCAGCAUUGACUGAAGAUCTT against Lce1m reads inactive: -0.316. With GCCUUACCGUCGAGGGUUUTT against Plpp3, the z-score was inactive: 1.44. GCAGAAGUAUUACUGGAUGTT against Olfr572: the z-score is inactive: 0.841. The result for CCACAUCCUGACUACUACATT against Sumo2 reads inactive: -1.14; that for GGAAAAAGUUGCUCAAAAUTT against Mrps15, inactive: 0.652.

Regarding GGAAUUUCUGGAGAAACUUTT against Lypla2, the z-score was inactive: -0.186. Take GGUCCAAGUCCGAAAAUAUTT against Gpr108: the z-score was inactive: 0.442. The result for GAGUGCUACAUUACGUACCTT against Krtap4-16 reads inactive: -1.12; that for CCUAUAACAUCCACCUUCATT against Yipf3, inactive: -0.508. In the case of GGACAGAUUCGACAAAGAGTT against Olfr1535, the z-score is inactive: -0.193. In the case of GGUCUCCAAGACGACAUAGTT against Snrnp27, the z-score was inactive: -1.92. GCCGUUCUGCUAUCACAACTT against Scrn2: the z-score is inactive: -0.531.

Consider CCCACAUCAUUGAGAUUCUTT against Olfr1508, for which the z-score was inactive: -1.25. The result for GCUCACCGGGAUCAUUCAATT against Eri3 reads inactive: 0.373; that for GGAGUUAUUAACUGAAGAGTT against Cyp2c55, inactive: 0.0702.

Turning to GGACCAUGGAUAUUUAGCATT against Sms, the z-score is inactive: -0.774. Turning to GGAGAAAGUCCCAUUAGAGTT against Vwa5a, the z-score is inactive: -0.289. With GCGGCACACCCUUAUUACATT against Sf1, the z-score is inactive: -0.713. The result for CGGAGGUGGCUAUAAAAAUTT against Sik2 reads inactive: 0.0967; that for GUUUUGUUUCAGAGCAGAATT against Olfr900, inactive: -0.134. In the case of GGUGACAGAUGUUUAUGAGTT against Ccdc28b, the z-score was inactive: -1.91. As for CGAAAGAUCUAAAUCAGAATT against Map3k4, the z-score is inactive: 1.62. Take GGGCUUCGGGUUAAGAAGGTT against Cd40: the z-score is inactive: -1.15.

Regarding GGUAGAAGAGUCUGAUCAUTT against Sfrp1, the z-score is inactive: -0.0589. The result for GCUUCCUCUACGACUACUATT against Grhl3 reads inactive: 0.294. The same measure for GCCCAAGUAUUUUAUUUCATT against Asb2: inactive: 0.358; for GGACAUAAGAGAAUGGUCATT against Lpp: active: 2.07.

As for GCCCUCAUUCAACACAUAATT against Clca1, the z-score is inactive: -0.0404.

Take GGUUGAGUUGGAUGACCUUTT against Lsm10: the z-score was inactive: -1.91. The result for GGACGAACUGAAGCCCUUATT against Rai2 reads inactive: 0.488; that for GGAAUAUUACCAGUCGGAATT against Marveld3, inactive: 0.469.

GGUCAUCGAGGCUGACUUGTT against Slc39a3: the z-score is inactive: -0.956. GGACACUUGAUAAAUCUUCTT against Afg1l: the z-score was inactive: 1.42. The same measure for GGCCACUUGACACUUGGUUTT against Pcdha4: inactive: 0.873.
